Data: PubChem BioAssay AID2685 (National Center for Advancing Translational Sciences (NCATS), 2010)
The list shows a part of the results. Shown are side measurements of this screen, not its main read-out; they come without a call. The list favours compounds with an active or inconclusive main result. Words in brackets tell the shape of the fitted curve; partial curves, single points and poor fits give uncertain potencies.

Assay: qHTS Assay for Lipid Storage Modulators in Drosophila S3 Cells;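 for cell number change: cells counted by Cell Tracker Red CMTPX staining in the red channel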
Settings: BODIPY lipid droplet fluorescence, 18-24 h; for cell number change: measured here: cell count max response, cells fed with added oleic acid
Procedure, shortened: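 Laser-scanning cytometry quantifies lipid droplet accumulation (500–530 nm total intensity; droplet/cell object ratio) in oleic acid-fed (400 uM added) Drosophila S3 cells treated with a concentration series. 20 uM Triacsin C defined 100% inhibition.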

[1] = measured here: lipid fluorescence (Fed channel) AC50, cells fed with added oleic acid
[2] = measured here: cell number channel AC50, cells fed with added oleic acid

**Q.** With `COC(=O)C1=C(O)/C(=C\c2ccc(CNC(=O)C(=O)Nc3ccc(C)cc3)o2)N=C1C` as the compound, how does the AC50 [1] read?
**A.** 5.17 µM [rising, partial curve, poor fit]

**Q.** With `Cc1ccc(-c2cc(C(=O)N3CCOCC3)no2)cc1` as the compound, how does the cell number change read?
**A.** 7.89%

**Q.** What about the AC50 [1] of the same compound?
**A.** 1.58 µM [falling, partial curve]

**Q.** With `COc1cccc(NC(=O)C(Sc2nnc(Nc3ccccc3C)s2)c2ccccc2)c1` (stereo unspecified) as the compound, how does the cell number change read?
**A.** 0.331%

**Q.** Which cell number change does the source give for `COc1cc(-c2nc3cnccn3c2Nc2ccc(C)cc2)ccc1O` here?
**A.** -19.2%

**Q.** With `O=C(O)c1ccccc1P(=O)(c1ccccc1)c1ccccc1` as the compound, how does the cell number change read?
**A.** -28.1%

**Q.** What about the AC50 [1] of the same compound?
**A.** 18.4 µM [falling, single point]

**Q.** With `COc1ccc(NC(=O)CCS(=O)(=O)c2ccc3c(c2)NC(=O)C(C)S3)cc1OC` (stereo unspecified) as the compound, how does the cell number change read?
**A.** 26.9%

**Q.** What does the source list for `CC(C)(C)NC(=O)NC(=O)COC(=O)c1cccc(S(=O)(=O)N2CCCCC2)c1`?
**A.** cell number change: -41.4%; AC50 [2]: 29.1 µM [falling, partial curve]; AC50 [1]: 29.1 µM [falling, partial curve, poor fit]

**Q.** For `COc1ccccc1NS(=O)(=O)c1ccc(Cl)c(NC(=O)CN2C(=O)c3ccccc3C2=O)c1`, which cell number change is on record?
**A.** 6.2%

**Q.** What about the AC50 [1] of the same compound?
**A.** 4.11 µM [rising, full curve, poor fit]

**Q.** With `Cc1cc2c(cc1S(=O)(=O)N1CCN(c3cccc(C)c3C)CC1)OCC(=O)N2` as the compound, how does the cell number change read?
**A.** -14.4%

**Q.** What about the AC50 [1] of the same compound?
**A.** 6.51 µM [falling, single point]

**Q.** With `CCOC(=O)C1=C(CN2CCc3ccccc32)NC(=O)NC1c1cccc([N+](=O)[O-])c1` (stereo unspecified) as the compound, how does the cell number change read?
**A.** 90.9%

**Q.** What about the AC50 [2] of the same compound?
**A.** 11.6 µM [rising, partial curve]

**Q.** And the AC50 [1]?
**A.** 11.6 µM [rising, partial curve]

**Q.** For `COc1ccccc1OCc1ccc(C(=O)NCC2CCCO2)cc1` (stereo unspecified), which cell number change is on record?
**A.** -3.48%

**Q.** And the AC50 [1]?
**A.** 0.00461 µM [falling, full curve, poor fit]

**Q.** For `CCn1c(N2CCN(C(=S)NCCc3ccccc3)CC2)nc2ccccc21`, which cell number change is on record?
**A.** -41%

**Q.** What about the AC50 [2] of the same compound?
**A.** 16.4 µM [falling, single point]

**Q.** And the AC50 [1]?
**A.** 23.1 µM [falling, partial curve]

**Q.** For `O=C1c2cccnc2C(=O)N1CNc1ccc(Cl)cc1`, which cell number change is on record?
**A.** -39.8%

**Q.** What about the AC50 [2] of the same compound?
**A.** 29.1 µM [falling, single point]

**Q.** Which cell number change does the source give for `COCCNC(=O)CCC1CCN(C/C=C/c2ccccc2OC)CC1` here?
**A.** -13.2%

**Q.** And the AC50 [1]?
**A.** 4.11 µM [falling, single point]

**Q.** What does the source list for `C/C(=N\NC(=O)c1cccc(S(=O)(=O)N2CCCC2)c1)c1ccncc1`?
**A.** cell number change: 5.12%; AC50 [1]: 14.6 µM [rising, partial curve]

**Q.** With `Cc1ccc(NC(=O)CSc2nnc(CCNC(=O)OC(C)(C)C)o2)c(C)c1` as the compound, how does the cell number change read?
**A.** 50.2%

**Q.** And the AC50 [2]?
**A.** 0.13 µM [rising, full curve]

**Q.** And the AC50 [1]?
**A.** 0.58 µM [rising, full curve]

**Q.** Which AC50 [2] does the source give for `COC(=O)CN1C(=O)C2(C(C#N)=C(N)Oc3n[nH]c(-c4cccs4)c32)c2ccccc21` (stereo unspecified) here?
**A.** 0.517 µM [rising, full curve, poor fit]

**Q.** And the AC50 [1]?
**A.** 0.103 µM [falling, full curve, poor fit]

**Q.** For `Cc1ccc(S(=O)(=O)Nc2cc(C)cn(Cc3ccccc3)c2=O)cc1`, which cell number change is on record?
**A.** 1.32%

**Q.** Which AC50 [2] does the source give for `Cc1ccc(C(=O)CSc2nnc(N)s2)c(C)c1` here?
**A.** 0.116 µM [falling, full curve, poor fit]

**Q.** What about the AC50 [1] of the same compound?
**A.** 0.116 µM [falling, full curve, poor fit]

**Q.** For `CN(Cc1nc2ccccc2c(=O)[nH]1)c1ccccc1`, which cell number change is on record?
**A.** 9.37%

**Q.** What about the AC50 [1] of the same compound?
**A.** 23.1 µM [rising, partial curve]

**Q.** With `CC1C(=O)N(c2ccc(S(=O)(=O)N(C)C)cc2)C1(/C=C/c1ccccc1)C(=O)NC1CCCC1` (stereo unspecified) as the compound, how does the cell number change read?
**A.** -11.1%

**Q.** And the AC50 [2]?
**A.** 4.11 µM [rising, partial curve]

**Q.** With `COc1ccc(-n2nnc3c(SCC(=O)NCC4CCCO4)ncnc32)cc1` (stereo unspecified) as the compound, how does the cell number change read?
**A.** -35.4%

**Q.** What about the AC50 [2] of the same compound?
**A.** 18.4 µM [falling, single point]

**Q.** What about the AC50 [1] of the same compound?
**A.** 29.1 µM [falling, single point]

**Q.** For `COC(=O)c1ccc(N2CCC(c3cc(-c4ccc(OC)cc4)n[nH]3)CC2)c([N+](=O)[O-])c1`, which cell number change is on record?
**A.** -13%

**Q.** What about the AC50 [1] of the same compound?
**A.** 16.4 µM [falling, single point]

**Q.** Which cell number change does the source give for `Cc1cc(F)ccc1NC(=O)CCc1ccc(S(=O)(=O)N2CCOCC2)cc1` here?
**A.** -16%

**Q.** What about the AC50 [1] of the same compound?
**A.** 6.51 µM [rising, single point]

**Q.** Which cell number change does the source give for `CCOC(=O)N1CCN(C(=O)c2ccc(C)c(S(=O)(=O)Nc3cccc(C)c3C)c2)CC1` here?
**A.** -3.85%

**Q.** What about the AC50 [1] of the same compound?
**A.** 0.731 µM [rising, single point]

**Q.** What does the source list for `O=C1N=c2ccccc2=C1c1sc(NS(=O)(=O)Cc2ccccc2)nc1O`?
**A.** cell number change: 19.4%; AC50 [1]: 9.2 µM [rising, partial curve]

**Q.** Which cell number change does the source give for `CC(C)[C@H](NC(=O)[C@@H]1Cc2ccccc2CN1)C(=O)NC1CCCCC1` here?
**A.** 1.53%

**Q.** With `O=C(Cc1cccs1)NCc1ccc(Cl)cc1Cl` as the compound, how does the cell number change read?
**A.** 3.38%

**Q.** What about the AC50 [1] of the same compound?
**A.** 20.6 µM [falling, single point]

**Q.** With `COc1ccc(C(=O)c2sc3nc(C)cc(-c4cccs4)c3c2N)cc1OC` as the compound, how does the cell number change read?
**A.** 22.5%

**Q.** And the AC50 [2]?
**A.** 3.26 µM [rising, full curve, poor fit]

**Q.** What about the AC50 [1] of the same compound?
**A.** 0.00461 µM [falling, full curve, poor fit]

**Q.** For `CN(C)C(=O)Cn1cc(S(=O)(=O)Cc2ccccc2)c2ccccc21`, which AC50 [1] is on record?
**A.** 32.6 µM [falling, partial curve, poor fit]

**Q.** For `O=C(CN1C(=O)/C(=C/c2ccc(F)cc2)SC1=S)N1CCN(CCc2ccccn2)CC1`, which cell number change is on record?
**A.** -24.4%

**Q.** With `Fc1ccc(COc2ccccc2-c2ccnc3ncnn23)cc1` as the compound, how does the cell number change read?
**A.** 20%

**Q.** And the AC50 [1]?
**A.** 1.16 µM [rising, single point]

**Q.** For `COCCOC(=O)C1=C(C)OC(N)=C(C#N)C1c1ccc2c(c1)OCO2` (stereo unspecified), which cell number change is on record?
**A.** 112%

**Q.** What about the AC50 [2] of the same compound?
**A.** 3.66 µM [rising, full curve]

**Q.** What about the AC50 [1] of the same compound?
**A.** 29.1 µM [rising, partial curve]

**Q.** Which results are given for `O=C1CC(c2ccc(F)cc2)Cc2nc(NCc3ccco3)ncc21` (stereo unspecified)?
**A.** cell number change: -19%; AC50 [2]: 0.116 µM [falling, single point]

**Q.** Which results are given for `CCSc1cc(N2CCOCC2)nc(-c2ccccc2)n1`?
**A.** cell number change: 22.7%; AC50 [1]: 9.2 µM [rising, partial curve]

**Q.** With `CC(C)(C)c1ccc(Cn2c(=O)cnc3ccccc32)cc1` as the compound, how does the cell number change read?
**A.** -25%

**Q.** What about the AC50 [1] of the same compound?
**A.** 29.1 µM [rising, single point]
